Test results as given in the supplement of paper PMC10849652.
This is one part of the list.

Protein sequences, listed by entry. Tags and fused reporters are not part of them. Lines headed by an entry give the natural chain unless they say otherwise; changes in a name come on top.
UniProt O43166: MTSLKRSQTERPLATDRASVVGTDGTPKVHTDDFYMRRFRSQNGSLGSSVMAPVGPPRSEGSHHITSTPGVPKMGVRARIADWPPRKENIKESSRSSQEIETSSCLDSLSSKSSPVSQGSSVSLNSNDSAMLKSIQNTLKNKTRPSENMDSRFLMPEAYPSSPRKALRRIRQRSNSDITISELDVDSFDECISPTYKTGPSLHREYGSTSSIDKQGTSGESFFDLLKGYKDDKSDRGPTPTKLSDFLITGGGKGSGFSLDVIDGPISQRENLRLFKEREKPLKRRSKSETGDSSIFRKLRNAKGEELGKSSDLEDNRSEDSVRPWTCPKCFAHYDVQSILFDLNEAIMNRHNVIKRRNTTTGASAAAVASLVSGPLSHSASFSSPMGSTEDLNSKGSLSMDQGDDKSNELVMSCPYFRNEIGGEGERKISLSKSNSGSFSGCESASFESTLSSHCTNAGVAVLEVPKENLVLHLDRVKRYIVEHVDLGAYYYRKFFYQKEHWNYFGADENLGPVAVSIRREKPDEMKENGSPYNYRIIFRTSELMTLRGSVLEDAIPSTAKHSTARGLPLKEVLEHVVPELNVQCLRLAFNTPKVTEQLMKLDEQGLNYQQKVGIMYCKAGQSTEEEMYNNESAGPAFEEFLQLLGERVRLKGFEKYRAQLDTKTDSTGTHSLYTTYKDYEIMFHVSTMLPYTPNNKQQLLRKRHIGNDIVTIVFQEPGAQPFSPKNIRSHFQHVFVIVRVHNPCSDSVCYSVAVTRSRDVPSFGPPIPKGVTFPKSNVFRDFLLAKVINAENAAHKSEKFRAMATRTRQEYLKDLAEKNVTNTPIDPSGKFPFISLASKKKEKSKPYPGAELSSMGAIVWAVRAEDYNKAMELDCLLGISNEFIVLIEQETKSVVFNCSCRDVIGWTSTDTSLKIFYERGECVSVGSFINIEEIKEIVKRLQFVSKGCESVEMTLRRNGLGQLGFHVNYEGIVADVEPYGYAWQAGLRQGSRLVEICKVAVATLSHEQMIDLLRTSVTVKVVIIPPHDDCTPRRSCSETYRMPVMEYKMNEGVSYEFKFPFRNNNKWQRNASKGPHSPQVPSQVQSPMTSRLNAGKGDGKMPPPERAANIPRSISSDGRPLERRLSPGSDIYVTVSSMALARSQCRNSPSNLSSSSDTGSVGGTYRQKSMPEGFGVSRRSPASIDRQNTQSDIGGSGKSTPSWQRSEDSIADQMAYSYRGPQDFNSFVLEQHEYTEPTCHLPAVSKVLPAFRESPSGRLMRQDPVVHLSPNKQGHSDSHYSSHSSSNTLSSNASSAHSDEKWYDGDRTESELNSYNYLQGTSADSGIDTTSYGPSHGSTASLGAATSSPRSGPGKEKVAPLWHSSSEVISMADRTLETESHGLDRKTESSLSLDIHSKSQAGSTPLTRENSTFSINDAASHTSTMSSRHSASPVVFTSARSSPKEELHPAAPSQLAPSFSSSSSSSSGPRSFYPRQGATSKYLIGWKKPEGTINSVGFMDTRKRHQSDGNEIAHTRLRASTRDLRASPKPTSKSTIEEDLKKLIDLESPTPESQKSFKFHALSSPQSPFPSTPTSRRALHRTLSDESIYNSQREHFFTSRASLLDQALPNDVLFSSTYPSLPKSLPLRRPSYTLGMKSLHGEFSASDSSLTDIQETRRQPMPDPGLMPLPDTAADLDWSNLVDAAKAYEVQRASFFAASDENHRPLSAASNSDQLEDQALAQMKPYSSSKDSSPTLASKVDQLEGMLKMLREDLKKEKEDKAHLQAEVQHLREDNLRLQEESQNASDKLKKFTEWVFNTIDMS
UniProt P55822: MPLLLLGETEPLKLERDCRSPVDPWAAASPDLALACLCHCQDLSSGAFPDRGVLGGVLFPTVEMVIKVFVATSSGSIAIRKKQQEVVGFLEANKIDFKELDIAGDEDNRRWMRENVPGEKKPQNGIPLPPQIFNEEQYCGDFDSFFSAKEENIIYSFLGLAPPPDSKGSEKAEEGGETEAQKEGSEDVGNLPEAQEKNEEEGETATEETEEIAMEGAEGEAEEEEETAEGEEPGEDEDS
UniProt Q9NRA2: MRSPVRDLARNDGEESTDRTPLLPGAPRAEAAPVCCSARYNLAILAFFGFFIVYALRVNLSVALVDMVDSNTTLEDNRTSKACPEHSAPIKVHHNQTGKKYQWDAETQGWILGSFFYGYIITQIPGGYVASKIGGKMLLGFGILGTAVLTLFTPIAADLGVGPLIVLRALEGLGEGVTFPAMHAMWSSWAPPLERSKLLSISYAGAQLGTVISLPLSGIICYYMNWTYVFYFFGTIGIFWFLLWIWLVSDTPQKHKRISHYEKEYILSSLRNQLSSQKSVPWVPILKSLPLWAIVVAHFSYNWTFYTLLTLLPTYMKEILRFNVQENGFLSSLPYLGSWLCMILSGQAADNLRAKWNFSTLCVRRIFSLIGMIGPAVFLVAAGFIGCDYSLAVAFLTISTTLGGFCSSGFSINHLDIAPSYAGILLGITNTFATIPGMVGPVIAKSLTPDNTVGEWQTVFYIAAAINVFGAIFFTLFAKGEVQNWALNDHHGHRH
UniProt Q9UJC5: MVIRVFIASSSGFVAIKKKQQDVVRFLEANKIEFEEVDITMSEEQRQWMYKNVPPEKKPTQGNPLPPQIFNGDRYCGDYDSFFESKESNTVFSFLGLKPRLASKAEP
UniProt P31947: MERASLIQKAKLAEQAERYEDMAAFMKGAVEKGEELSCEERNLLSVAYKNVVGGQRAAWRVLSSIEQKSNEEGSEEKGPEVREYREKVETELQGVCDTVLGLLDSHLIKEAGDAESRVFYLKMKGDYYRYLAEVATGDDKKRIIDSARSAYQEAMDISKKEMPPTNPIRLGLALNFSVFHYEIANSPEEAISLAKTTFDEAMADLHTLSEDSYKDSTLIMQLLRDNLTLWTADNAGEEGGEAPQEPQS
UniProt Q9UGK8: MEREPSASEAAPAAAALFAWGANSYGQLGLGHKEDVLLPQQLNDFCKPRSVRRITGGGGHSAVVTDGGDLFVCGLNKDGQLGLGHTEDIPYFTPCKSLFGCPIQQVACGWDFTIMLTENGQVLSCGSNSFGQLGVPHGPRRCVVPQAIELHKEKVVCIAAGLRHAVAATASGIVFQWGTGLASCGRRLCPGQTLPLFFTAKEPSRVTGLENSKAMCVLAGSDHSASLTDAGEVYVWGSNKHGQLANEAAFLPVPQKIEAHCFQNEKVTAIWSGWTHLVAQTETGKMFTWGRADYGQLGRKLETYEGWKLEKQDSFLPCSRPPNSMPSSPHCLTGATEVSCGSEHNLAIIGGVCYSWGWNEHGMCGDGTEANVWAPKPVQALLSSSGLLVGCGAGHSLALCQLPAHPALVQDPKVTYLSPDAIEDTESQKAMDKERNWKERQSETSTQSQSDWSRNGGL
UniProt Q2M3G4: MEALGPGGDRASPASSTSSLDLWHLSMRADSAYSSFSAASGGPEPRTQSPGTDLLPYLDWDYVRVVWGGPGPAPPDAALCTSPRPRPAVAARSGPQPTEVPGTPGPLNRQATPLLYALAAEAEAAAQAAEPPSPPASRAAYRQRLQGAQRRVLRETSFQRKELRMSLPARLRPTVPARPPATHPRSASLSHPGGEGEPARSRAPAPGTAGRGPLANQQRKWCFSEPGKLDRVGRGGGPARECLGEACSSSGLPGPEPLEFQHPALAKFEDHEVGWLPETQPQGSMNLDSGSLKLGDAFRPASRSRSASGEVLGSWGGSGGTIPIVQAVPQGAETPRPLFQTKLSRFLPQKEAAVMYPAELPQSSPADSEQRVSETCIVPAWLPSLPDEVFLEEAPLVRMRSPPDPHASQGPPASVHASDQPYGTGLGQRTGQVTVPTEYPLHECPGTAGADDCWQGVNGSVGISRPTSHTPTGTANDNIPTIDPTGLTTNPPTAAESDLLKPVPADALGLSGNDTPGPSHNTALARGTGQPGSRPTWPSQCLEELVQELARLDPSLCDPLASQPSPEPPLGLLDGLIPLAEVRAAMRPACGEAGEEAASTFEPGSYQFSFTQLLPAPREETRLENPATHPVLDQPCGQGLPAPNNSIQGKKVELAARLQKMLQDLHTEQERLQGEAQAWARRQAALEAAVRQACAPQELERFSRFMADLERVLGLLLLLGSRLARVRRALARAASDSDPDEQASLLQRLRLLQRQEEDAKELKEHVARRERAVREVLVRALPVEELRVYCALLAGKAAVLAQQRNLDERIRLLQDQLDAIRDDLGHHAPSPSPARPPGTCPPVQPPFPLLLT
UniProt P49281: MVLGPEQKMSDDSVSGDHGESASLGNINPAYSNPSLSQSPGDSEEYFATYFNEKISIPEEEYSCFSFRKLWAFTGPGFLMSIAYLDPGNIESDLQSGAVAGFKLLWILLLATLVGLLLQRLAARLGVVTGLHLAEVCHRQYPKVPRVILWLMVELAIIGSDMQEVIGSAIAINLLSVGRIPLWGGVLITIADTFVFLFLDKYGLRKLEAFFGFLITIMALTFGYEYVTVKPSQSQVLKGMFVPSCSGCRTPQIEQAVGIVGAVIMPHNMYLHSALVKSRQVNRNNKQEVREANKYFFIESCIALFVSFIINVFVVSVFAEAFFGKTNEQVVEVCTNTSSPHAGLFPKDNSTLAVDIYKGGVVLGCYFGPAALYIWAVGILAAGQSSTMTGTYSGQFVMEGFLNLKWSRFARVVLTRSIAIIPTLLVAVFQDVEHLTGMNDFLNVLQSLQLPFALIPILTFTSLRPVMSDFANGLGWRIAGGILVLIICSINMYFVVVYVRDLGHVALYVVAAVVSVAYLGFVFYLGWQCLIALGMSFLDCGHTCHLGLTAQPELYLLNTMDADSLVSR
UniProt Q9BX95: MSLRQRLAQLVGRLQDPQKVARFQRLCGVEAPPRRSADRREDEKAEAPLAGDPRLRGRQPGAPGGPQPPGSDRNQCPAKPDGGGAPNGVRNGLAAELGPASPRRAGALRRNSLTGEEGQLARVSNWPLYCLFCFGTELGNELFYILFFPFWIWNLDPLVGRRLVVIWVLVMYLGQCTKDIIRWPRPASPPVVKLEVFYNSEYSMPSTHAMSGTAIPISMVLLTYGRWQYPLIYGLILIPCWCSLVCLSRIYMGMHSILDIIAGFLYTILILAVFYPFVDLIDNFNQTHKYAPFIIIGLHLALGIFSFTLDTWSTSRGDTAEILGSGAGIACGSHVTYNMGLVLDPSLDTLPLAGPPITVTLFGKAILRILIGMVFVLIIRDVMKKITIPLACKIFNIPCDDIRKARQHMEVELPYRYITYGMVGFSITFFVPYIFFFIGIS
UniProt Q96ST3: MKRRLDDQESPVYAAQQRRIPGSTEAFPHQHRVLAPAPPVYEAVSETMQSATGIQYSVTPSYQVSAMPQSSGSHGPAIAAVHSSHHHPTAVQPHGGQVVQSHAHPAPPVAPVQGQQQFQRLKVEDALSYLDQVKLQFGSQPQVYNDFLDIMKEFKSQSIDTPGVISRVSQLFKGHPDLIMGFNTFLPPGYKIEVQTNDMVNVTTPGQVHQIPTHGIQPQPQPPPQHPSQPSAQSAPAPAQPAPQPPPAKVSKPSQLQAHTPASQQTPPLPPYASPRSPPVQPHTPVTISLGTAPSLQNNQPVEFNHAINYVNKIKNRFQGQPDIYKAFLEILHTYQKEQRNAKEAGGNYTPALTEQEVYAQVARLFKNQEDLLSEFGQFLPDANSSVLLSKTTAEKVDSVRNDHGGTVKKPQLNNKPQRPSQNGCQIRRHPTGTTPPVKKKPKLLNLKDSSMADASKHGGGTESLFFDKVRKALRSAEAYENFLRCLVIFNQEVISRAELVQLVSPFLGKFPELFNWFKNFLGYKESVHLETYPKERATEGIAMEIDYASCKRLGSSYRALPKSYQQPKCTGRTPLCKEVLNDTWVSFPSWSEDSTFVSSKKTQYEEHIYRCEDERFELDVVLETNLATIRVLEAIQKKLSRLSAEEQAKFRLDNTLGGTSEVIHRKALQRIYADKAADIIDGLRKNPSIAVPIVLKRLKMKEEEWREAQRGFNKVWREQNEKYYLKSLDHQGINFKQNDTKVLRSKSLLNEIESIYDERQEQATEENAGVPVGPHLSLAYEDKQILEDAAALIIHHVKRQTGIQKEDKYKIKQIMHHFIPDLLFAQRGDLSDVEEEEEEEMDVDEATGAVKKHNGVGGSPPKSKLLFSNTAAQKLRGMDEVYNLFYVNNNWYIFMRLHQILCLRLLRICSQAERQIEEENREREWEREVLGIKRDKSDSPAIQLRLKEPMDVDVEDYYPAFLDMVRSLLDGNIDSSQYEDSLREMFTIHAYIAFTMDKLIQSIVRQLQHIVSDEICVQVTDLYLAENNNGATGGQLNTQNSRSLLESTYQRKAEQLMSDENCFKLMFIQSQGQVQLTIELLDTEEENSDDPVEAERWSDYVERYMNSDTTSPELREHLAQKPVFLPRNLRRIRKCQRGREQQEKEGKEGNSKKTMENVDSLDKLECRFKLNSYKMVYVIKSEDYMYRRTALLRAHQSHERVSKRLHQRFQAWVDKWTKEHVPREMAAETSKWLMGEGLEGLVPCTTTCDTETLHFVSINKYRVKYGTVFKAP

Assays:
Assay in all cases: log2 fold change, soluble protein after heating vs DMSO (PISA); higher = thermal stabilisation; K562 lysate, 10 uM; active = over 0.2 and 3.5 SD of the protein, either way, in both replicates (recomputed)
vemurafenib = compound: CCCS(=O)(=O)Nc1ccc(F)c(C(=O)c2c[nH]c3ncc(-c4ccc(Cl)cc4)cc23)c1F [vemurafenib]
How it was run: (§1)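 K562 pellets were dounce-homogenised in PBS pH 7.4 with 1 mM MgCl2, and the crude extract at 1 mg/mL protein was treated with 10 μM compound for 30 min. Aliquots were heated for 3 min across 48°C-58°C, pooled, and brought to 0.5% NP-40 at 4°C; soluble protein was the supernatant after 21,000xg for 90 min. Soluble protein was quantified by TMTpro 16plex LC-MS/MS with channel sums equalised, and reported as log2 fold change in thermal stability against DMSO controls, with values from duplicates.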

[1] = compound: CCCS(=O)(=O)Nc1ccc(F)c(C(=O)c2c[nH]c3ncc(Cl)cc23)c1F
How it was run: as §1

barasertib = compound: CCN(CCCOc1ccc2c(Nc3cc(CC(=O)Nc4cccc(F)c4)[nH]n3)ncnc2c1)CCOP(=O)(O)O [barasertib]
How it was run: as §1

[2] = compound: CC[C@@H]1C(=O)N(C)c2cnc(Nc3ccc(C(=O)NC4CCN(C)CC4)cc3OC)nc2N1C1CCCC1
How it was run: as §1

volasertib = compound: CC[C@@H]1C(=O)N(C)c2cnc(Nc3ccc(C(=O)N[C@H]4CC[C@H](N5CCN(CC6CC6)CC5)CC4)cc3OC)nc2N1C(C)C [volasertib]
How it was run: as §1

[3] = compound: CCn1c(C(=O)N(C2CC2)C2CC2)cc2c3c(ncn3C)c(Nc3cc(C)n(C)n3)nc21
How it was run: as §1

[4] = compound: CCn1cc(-c2ccnc3[nH]c(-c4cccc(CN(C)C)c4)cc23)c(-c2ccc(NC(=O)N(C)C)cc2)n1
How it was run: as §1

[5] = compound: CN1CCC(CNc2ccc3ncc(-c4cccc(OC(F)(F)F)c4)n3n2)CC1
How it was run: as §1

sotrastaurin = compound: CN1CCN(c2nc(C3=C(c4c[nH]c5ccccc45)C(=O)NC3=O)c3ccccc3n2)CC1 [sotrastaurin]
How it was run: as §1

alvocidib = compound: CN1CC[C@H](c2c(O)cc(O)c3c(=O)cc(-c4ccccc4Cl)oc23)[C@H](O)C1 [alvocidib]
How it was run: as §1

Tubastatin A = compound: CN1CCc2c(c3ccccc3n2Cc2ccc(C(=O)NO)cc2)C1 [Tubastatin A]
How it was run: as §1

[6] = compound: CNC(=O)C1=CC=CC=C1NC2=NC(=NC=C2Cl)NC3=C(C=C(C=C3)N4CCOCC4)OC
How it was run: as §1

defactinib = compound: CNC(=O)c1ccc(Nc2ncc(C(F)(F)F)c(NCc3nccnc3N(C)S(C)(=O)=O)n2)cc1 [defactinib]
How it was run: as §1

encorafenib = compound: COC(=O)N[C@@H](C)CNc1nccc(-c2cn(C(C)C)nc2-c2cc(Cl)cc(NS(C)(=O)=O)c2F)n1 [encorafenib]
How it was run: as §1

[7] = compound: COC(=O)[C@H](CCSC)NC(=O)C1=C(C=C(C=C1)NC[C@H](CS)N)C2=CC=CC=C2
How it was run: as §1

alisertib = compound: COc1cc(Nc2ncc3c(n2)-c2ccc(Cl)cc2C(c2c(F)cccc2OC)=NC3)ccc1C(=O)O [alisertib]
How it was run: as §1

[8] = compound: COc1cc2nc(-c3cc(F)ccc3O)nc(N[C@@H]3CNC[C@H]3C(C)(C)O)c2cc1OC
How it was run: as §1

gefitinib = compound: COc1cc2ncnc(Nc3ccc(F)c(Cl)c3)c2cc1OCCCN1CCOCC1 [gefitinib]
How it was run: as §1

saracatinib = compound: CN1CCN(CCOc2cc(OC3CCOCC3)c3c(Nc4c(Cl)ccc5c4OCO5)ncnc3c2)CC1 [saracatinib]
How it was run: as §1

[9] = compound: CNc1nc(-c2ccc3c(N)n[nH]c3c2)cc(N2C[C@@H](C(=O)NC3CCCCC3)CC[C@H]2C)n1
How it was run: as §1

| Target | log2 fold change (vemurafenib) | log2 fold change [1] | log2 fold change (barasertib) | log2 fold change [2] | log2 fold change (volasertib) | log2 fold change [3] | log2 fold change [4] | log2 fold change [5] | log2 fold change (sotrastaurin) | log2 fold change (alvocidib) | log2 fold change (Tubastatin A) | log2 fold change [6] | log2 fold change (defactinib) | log2 fold change (encorafenib) | log2 fold change [7] | log2 fold change (alisertib) | log2 fold change [8] | log2 fold change (gefitinib) | log2 fold change (saracatinib) | log2 fold change [9] |
| --- | --- | --- | --- | --- | --- | --- | --- | --- | --- | --- | --- | --- | --- | --- | --- | --- | --- | --- | --- | --- |
| SIPA1L1 (UniProt O43166) | inactive: 0.004 | inactive: -0.064 | inactive: -0.03 | inactive: 0.017 | inactive: -0.049 | inactive: 0.083 | inactive: -0.195 | inactive: 0.078 | inactive: 0.204 | inactive: -0.082 | inactive: 0.021 | inactive: -0.081 | inactive: 0.022 | inactive: -0.052 | inactive: 0.063 | inactive: -0.001 | inactive: 0.044 | inactive: 0.05 |  |  |
| SF3B1 (UniProt O75533) | inactive: -0.006 | inactive: 0.006 | inactive: 0.003 | inactive: -0.018 | inactive: -0.016 | inactive: -0.019 | inactive: -0.033 | inactive: 0.041 | inactive: 0.02 | inactive: -0.004 | inactive: -0.047 | inactive: 0.012 | inactive: -0.018 | inactive: 0.005 | inactive: 0.075 | inactive: 0.022 | inactive: -0.013 | inactive: -0.025 | inactive: 0.01 | inactive: -0.015 |
| SETD2 (UniProt Q9BYW2) | inactive: 0.067 | inactive: -0.014 | inactive: 0.004 | inactive: -0.055 | inactive: 0.007 | inactive: -0.064 | inactive: -0.074 | inactive: 0 | inactive: 0.013 | inactive: -0.031 | inactive: 0.014 | inactive: -0.052 | inactive: -0.088 | inactive: 0.003 | inactive: 0.032 | inactive: 0.043 | inactive: 0.05 | inactive: -0.112 | inactive: 0.011 | inactive: 0.018 |
| SH3GLB2 (UniProt Q9NR46) | inactive: -0.056 | inactive: 0.001 | inactive: -0.017 | inactive: 0.005 | inactive: -0.03 | inactive: 0.038 | inactive: -0.007 | inactive: -0.009 | inactive: -0.043 | inactive: -0.008 | inactive: -0.112 | inactive: 0.01 | inactive: 0.017 | inactive: 0.038 | inactive: -0.066 | inactive: 0.032 | inactive: -0.039 | inactive: 0.008 | inactive: -0.021 | inactive: -0.059 |
| SH3BGR (UniProt P55822) | inactive: 0.009 | inactive: 0.016 | inactive: 0.073 | inactive: 0.009 | inactive: 0.048 | inactive: 0.014 | inactive: 0.01 | inactive: 0.01 | inactive: 0.053 | inactive: -0.01 | inactive: -0.006 | inactive: -0.03 | inactive: 0.037 | inactive: -0.036 | inactive: -0.068 | inactive: -0.04 | inactive: 0.003 | inactive: -0.011 | inactive: -0.024 | inactive: 0.043 |
| SERPINB6, A0A087X1N8 | inactive: 0 | inactive: 0.042 | inactive: -0.058 | inactive: 0.055 | inactive: 0.003 | inactive: -0.027 | inactive: -0.08 | inactive: 0.038 | inactive: -0.003 | inactive: -0.013 | inactive: 0.031 | inactive: 0.003 | inactive: 0.021 | inactive: -0.033 | inactive: -0.041 | inactive: -0.011 | inactive: -0.011 | inactive: -0.017 | inactive: -0.021 | inactive: 0.001 |
| SLC17A5 (UniProt Q9NRA2) | inactive: -0.015 | inactive: 0.069 | inactive: 0.117 | inactive: 0.042 | inactive: -0.023 | inactive: -0.053 | inactive: -0.061 | inactive: 0.187 |  | inactive: -0.1 | inactive: 0.054 | inactive: -0.016 | inactive: -0.14 | inactive: 0.031 | inactive: -0.115 | inactive: -0.019 | inactive: -0.042 | inactive: 0.037 | inactive: -0.114 | inactive: 0.208 |
| SLC15A4 (UniProt Q8N697) | inactive: 0.018 | inactive: 0.018 | inactive: 0.009 | inactive: -0.069 | inactive: 0.037 |  | inactive: -0.221 | inactive: 0.367 | inactive: 0.081 | inactive: 0.186 |  | inactive: 0.042 | inactive: -0.032 | inactive: -0.092 | inactive: 0.021 |  | inactive: -0.005 |  | inactive: -0.042 | inactive: -0.015 |
| SH3BGRL2 (UniProt Q9UJC5) | inactive: -0.013 | inactive: 0.021 | inactive: 0.022 | inactive: 0.076 | inactive: 0.006 | inactive: -0.007 | active: 0.387 | inactive: -0.052 | inactive: 0.002 | inactive: 0.067 | inactive: 0.031 | inactive: 0.05 | inactive: 0.039 | inactive: -0.066 | inactive: 0.027 | inactive: -0.013 | inactive: -0.001 | inactive: -0.001 | inactive: 0.014 | inactive: 0.061 |
| SFN (UniProt P31947) | inactive: -0.038 | inactive: 0.003 | inactive: -0.025 | inactive: 0.006 | inactive: 0.029 | inactive: 0.023 | active: 0.521 | inactive: -0.084 | inactive: -0.01 | inactive: 0.05 | inactive: 0.054 | inactive: -0.009 | inactive: 0.052 | inactive: -0.024 | inactive: 0.065 | inactive: 0.076 | inactive: 0.008 | inactive: -0.008 | inactive: -0.003 | inactive: -0.017 |
| SERGEF (UniProt Q9UGK8) | inactive: -0.107 | inactive: 0.043 | inactive: 0.035 | inactive: -0.008 | inactive: -0.061 | inactive: 0.015 | inactive: -0.045 | inactive: -0.021 | inactive: -0.307 | inactive: 0.009 | inactive: -0.008 | inactive: 0.065 | inactive: -0.01 | inactive: -0.011 | inactive: 0.015 | inactive: -0.054 | inactive: 0.015 | inactive: 0.034 | inactive: 0.041 | inactive: 0.05 |
| SHROOM1 (UniProt Q2M3G4) | inactive: 0.045 | inactive: -0.12 | inactive: -0.007 | inactive: -0.025 | inactive: 0.136 | inactive: -0.061 | inactive: 0.07 | inactive: -0.031 | inactive: 0.096 | inactive: 0.014 | inactive: -0.096 | inactive: 0.068 | inactive: 0.033 | inactive: 0.162 | inactive: -0.03 | inactive: 0.003 | inactive: 0.038 | inactive: 0.001 | inactive: 0.042 | inactive: -0.032 |
| SHFL (UniProt Q9NUL5) | inactive: -0.065 | inactive: 0.016 | inactive: 0.084 | inactive: 0.037 | inactive: 0.043 | inactive: 0.045 |  |  | inactive: 0.094 |  | inactive: 0.025 | inactive: -0.062 | inactive: 0.01 | inactive: 0 | inactive: -0.037 | inactive: -0.029 | inactive: -0.003 | inactive: 0.034 | inactive: 0.01 | inactive: 0.026 |
| SLC11A2 isoform 3 (UniProt P49281) | inactive: -0.009 | inactive: 0.043 | inactive: 0.019 | inactive: 0.073 | inactive: 0.026 | inactive: 0.036 | inactive: -0.082 | inactive: 0.074 | inactive: -0.012 | inactive: -0.032 | inactive: -0.047 | inactive: 0.031 | inactive: -0.001 | inactive: 0.063 | inactive: -0.027 | inactive: 0.128 | inactive: 0.021 | active: 0.295 | inactive: 0.028 | inactive: -0.008 |
| SGPP1 (UniProt Q9BX95) | inactive: -0.06 | inactive: 0.013 | inactive: 0.042 | inactive: -0.209 | inactive: 0.017 | inactive: 0.093 | inactive: 0.12 | inactive: -0.068 | inactive: -0.033 | inactive: -0.007 | inactive: -0.175 | inactive: 0.035 | inactive: 0.036 | inactive: 0.146 | inactive: -0.005 | inactive: -0.045 | inactive: 0.003 | inactive: 0.006 | inactive: 0.008 | inactive: -0.019 |
| SIN3A (UniProt Q96ST3) | inactive: -0.005 | inactive: 0.017 | inactive: 0.031 | inactive: 0.019 | inactive: 0.011 | inactive: -0.015 | inactive: 0.014 | inactive: -0.017 | inactive: 0.016 | inactive: -0.006 | inactive: -0.074 | inactive: 0.004 | inactive: 0.013 | inactive: 0.01 | inactive: 0.062 | inactive: 0.022 | inactive: -0.001 | inactive: 0.015 | inactive: -0.005 | inactive: 0.013 |

Part of the list above in another layout.
Target | log2 fold change (vemurafenib) | log2 fold change [1] | log2 fold change (barasertib) | log2 fold change [2] | log2 fold change (volasertib) | log2 fold change [3] | log2 fold change [4] | log2 fold change [5] | log2 fold change (sotrastaurin) | log2 fold change (alvocidib) | log2 fold change (Tubastatin A) | log2 fold change [6] | log2 fold change (defactinib) | log2 fold change (encorafenib) | log2 fold change [7] | log2 fold change (alisertib) | log2 fold change [8] | log2 fold change (gefitinib) | log2 fold change (saracatinib) | log2 fold change [9]
SH3BGR (UniProt P55822) | inactive: 0.009 | inactive: 0.016 | inactive: 0.073 | inactive: 0.009 | inactive: 0.048 | inactive: 0.014 | inactive: 0.01 | inactive: 0.01 | inactive: 0.053 | inactive: -0.01 | inactive: -0.006 | inactive: -0.03 | inactive: 0.037 | inactive: -0.036 | inactive: -0.068 | inactive: -0.04 | inactive: 0.003 | inactive: -0.011 | inactive: -0.024 | inactive: 0.043
SERPINB6, A0A087X1N8 | inactive: 0 | inactive: 0.042 | inactive: -0.058 | inactive: 0.055 | inactive: 0.003 | inactive: -0.027 | inactive: -0.08 | inactive: 0.038 | inactive: -0.003 | inactive: -0.013 | inactive: 0.031 | inactive: 0.003 | inactive: 0.021 | inactive: -0.033 | inactive: -0.041 | inactive: -0.011 | inactive: -0.011 | inactive: -0.017 | inactive: -0.021 | inactive: 0.001
